From PMC10502012 come the findings set out here.

Results are given in words; binding and its absence hold for the method and conditions named. In cells and extracts the contact can be indirect. A result given as binding can be weak or reduced; the word gives no strength. Sequences can lack the tags named with a protein.

This experiment deals with Twin-Streptavidin-tagged chicken PHT1 (pull-down, wild type) (chicken). Kind of experiment: pull-down; transporter and TASL co-transfected in Expi293F; DDM/CHS lysate on Strep-Tactin beads, eluted with desthiobiotin; western blot with anti-GFP-HRP. (In general: A western blot detects proteins with antibodies after separation by electrophoresis.)

B1: full-length human TASL, GFP-His-tagged (protein, UniProt Q9HAI6 1-301)
chain: MLSEGYLSGLEYWNDIHWSCASYNEQVAGEKEEETNSVATLSYSSVDETQVRSLYVSCKSSGKFISSVHSRESQHSRSQRVTVLQTNPNPVFESPNLAAVEICRDASRETYLVPSSCKSICKNYNDLQIAGGQVMAINSVTTDFPSESSFEYGPLLKSSEIPLPMEDSISTQPSDFPQKPIQRYSSYWRITSIKEKSSLQMQNPISNAVLNEYLEQKVVELYKQYIMDTVFHDSSPTQILASELIMTSVDQISLQVSREKNLETSKARDIVFSRLLQLMSTEITEISTPSLHISQYSNVNP
Turning to B1, the binding entry is on record as “binds”.
